Holding throughout (test): pull-down; 20 μg GST or GST-tagged protein on Glutathione Sepharose beads; 100–200 μg purified protein added, 30 min at 4°C; 20 mM Tris-HCl pH 8.0, 200 mM NaCl, 0.5% Triton-X100; Coomassie staining or anti-MBP immunoblot; both purified
Background: A western blot detects proteins with antibodies after separation by electrophoresis.

In assay [1] the target is GST-CI-MPR (aa1–164).
The target in assay [2] is GST-CI-MPR (aa21–48).
Assay [3] deals with GST-CI-MPR (aa21–56).
Assay [4] has as its target GST-CI-MPR Δloop5 mutant.
In assay [5] the target is GST-IGF1R tail.
Assay [6] concerns the target GST-INS1R tail H5Y.
For assay [7], the target named is GST-INS1R tail.
Assay [8] has as its target GST-SEMA4C (aa47–65).
For assay [9], the target named is GST-SEMA4C (aa47–71).
The target of assay [10] is GST-SEMA4C-tail (aa1–149).
Assay [11] deals with GST-SEMA4C-Δ4 (aa1–145).

Results are given in words; binding and its absence hold for the method and conditions named. For some assays here: A result given as binding can be weak or reduced; the word gives no strength. Tags and fused reporters may be left off the sequences shown.

B1: MBP-SNX5^PX (domain or fragment, UniProt Q9Y5X3 20-180)
chain: SVSVDLNVDPSLQIDIPDALSERDKVKFTVHTKTTLPTFQSPEFSVTRQHEDFVWLHDTLIETTDYAGLIIPPAPTKPDFDGPREKMQKLGEGEGSMTKEEFAKMKQELEAEYLAVFKKTVSSHEVFLQRLSSHPVLSKDRNFHVFLEYDQDLSVRRKNTK
Consider B1, for which the binding entry in assay [1], in assay [2], in assay [3], in assay [4], in assay [5] and in [6] was “binds” in each case. In addition, the binding result is “no binding” in [7]; “binds” in assay [8]; “binds” in assay [9]; “binds” in assay [10]; “binds” in assay [11].

For the origin of these results see paper PMC7082075.
